In US11013690B2, “Esterification/saponification-based method for liposomal encapsulation of hydrophilic glucuronides” (priority 2016, dated 2021):

Test: Liposome loading, glucuronide-mE versus glucuronide form
Assay type: physicochemical
Settings: pH gradient liposomes, 75° C., 1 hour; label is the parental drug

| SMILES | improvement of liposome loading under glucuronide-mE form compared to glucuronide form |
| --- | --- |
| Cc1cc(=O)oc2cc(O)ccc12 [4MU, 4-methylumbelliferone] | 55 folds |
| CC[C@@]1(O)C(=O)OCc2c1cc1n(c2=O)Cc2cc3c(N)cccc3nc2-1 [9AC, 9-aminocamptothecin, reference compound] | over 275 folds |
